Laboratory results as given in publication PMC3320877.
These are yes or no findings as the source states them, for the method shown. Some entries that bind do so weakly or less than the wild type.

Sequences of proteins named here, by UniProt entry; tags and fusion partners are left off.
UniProt P51681: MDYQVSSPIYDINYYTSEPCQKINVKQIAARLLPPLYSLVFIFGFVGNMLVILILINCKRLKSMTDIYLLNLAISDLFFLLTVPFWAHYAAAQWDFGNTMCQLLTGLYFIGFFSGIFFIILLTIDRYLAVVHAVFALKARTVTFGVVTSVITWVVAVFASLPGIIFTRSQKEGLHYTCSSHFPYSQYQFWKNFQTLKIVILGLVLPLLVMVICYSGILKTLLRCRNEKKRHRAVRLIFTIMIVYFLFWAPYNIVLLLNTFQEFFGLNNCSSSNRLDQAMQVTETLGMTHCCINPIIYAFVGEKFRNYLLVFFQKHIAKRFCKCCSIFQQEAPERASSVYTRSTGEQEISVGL
UniProt P43490: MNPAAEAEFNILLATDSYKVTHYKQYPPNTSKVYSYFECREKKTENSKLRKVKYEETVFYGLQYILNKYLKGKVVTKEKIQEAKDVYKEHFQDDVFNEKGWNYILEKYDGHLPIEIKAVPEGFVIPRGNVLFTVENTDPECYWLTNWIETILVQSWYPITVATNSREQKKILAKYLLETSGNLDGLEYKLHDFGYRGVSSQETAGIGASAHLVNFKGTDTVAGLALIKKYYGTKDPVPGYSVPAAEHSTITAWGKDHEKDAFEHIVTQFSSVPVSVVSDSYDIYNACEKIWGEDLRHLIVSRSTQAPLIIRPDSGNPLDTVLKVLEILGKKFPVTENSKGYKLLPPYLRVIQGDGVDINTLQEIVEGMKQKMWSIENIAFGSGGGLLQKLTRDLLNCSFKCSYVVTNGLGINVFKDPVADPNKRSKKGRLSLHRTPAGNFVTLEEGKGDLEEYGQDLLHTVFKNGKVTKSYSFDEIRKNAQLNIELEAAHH

Biological target: recombinant His-tagged insect-cell expressed CCR5, detergent-solubilised (UniProt P51681)
Test: SPR; only the binder purified

visfatin (recombinant) (from UniProt P43490 1-491)
binding: binds
